# From patent US7303921B2, “Method to assay coenzyme Q10 in blood plasma or blood serum” (priority 2002, dated 2007)
# Assay: Recovery, accuracy and precision of the CoQ10 plasma assay
# Parameters: species or system human
# Protocol: Description of the Analysis. 200 μl of a blood plasma sample were supplemented with 50 μl of a 1,4 benzoquinone solution (2 mg/ml) in a test tube and vortexed for 10 seconds. After 10 minutes, 1 ml of n-propanol was added. The test tube was vortexed for 10 seconds and centrifuged at 10,000 rpm for 2 minutes in order to spin down the protein precipitate. 200 μl of the supernatant were injected into the HPLC. […] Mobile phase was constituted by ethanol-methanol (65%-35%) and the flux was 1 ml/min. UV detection was performed at 275 nm.
# 200 μl of different concentrations of pure oxidized CoQ10 were injected as standards. Working solutions of the standards were in propanol:water (5:1), i.e. the same propanol:water ratio as for the samples. Peak area analysis was performed by a Beckman Gold Data System (DOS version).
# Recovery, Accuracy and Precision. Recovery of CoQ10 was based on a comparison between the peaks obtained by spiking samples with increasing concentrations of oxidized CoQ10 and the corresponding peaks of the standard. Recovery was documented at 3 concentrations (1.16, 2.32, and 3.48 μM) with triplicate determinations for each concentration. Intra-assay accuracy and precision were determined using 4 samples, the value of which had been certified by a reference ECD method; each level was assayed 5 times for the intra-assay accuracy and precision test. Inter-assay accuracy and precision were determined over a two-month period using a quality control sample (n=21).
smiles,measurement,setting,value
COC1=C(OC)C(=O)C(C/C=C(\C)CC/C=C(\C)CC/C=C(\C)CC/C=C(\C)CC/C=C(\C)CC/C=C(\C)CC/C=C(\C)CC/C=C(\C)CC/C=C(\C)CCC=C(C)C)=C(C)C1=O [CoQ10],limit of quantitation,UV-HPLC method,0.037 µM
same,precision at limit of quantitation,at 0.037 μM,10.52%
same,Mean of 21 measurements,day to day test over a two month period,0.80 µM
same,% deviation from nominal value,"day to day test, n=21",0.7%
same,C.V. %,"day to day test, n=21",2.16%
same,Measured,plasma sample after spiking with CoQ10 1.16 μM,1.40 pM
same,Measured,plasma sample after spiking with CoQ10 2.32 μM,2.56 pM
same,Measured,plasma sample after spiking with CoQ10 3.48 μM,3.72 pM
same,initial concentration of sample,plasma sample before spiking,0.29 µM
same,Measured,"plasma sample, basal concentration",0.29 pM
same,Deviation %,"within run accuracy, deviation from nominal value",1.9% and −3.4% and −4.7% and 2.6%
same,C.V. %,"within run precision, five analyses per sample",1.6% and 5.3% and 5.7% and 10.5%
same,Deviation from nominal values,"within run, all four samples",≤ 4.7%

# Several values for one entry are separate records, joined by “and”; a condition that tells them apart may be missing. Identical values can stand only once.
